Changes are numbered by the printed parent chain. These are yes or no findings as the source states them, for the method shown. Binding seen in cells or lysates may run through a third protein. A yes stands for co-enrichment or nearness to the bait. Other partners may have been found.
Legend:
Mad1-BirA (human) = target: T1, Mad1-BirA (human) (UniProt Q9Y6D9); assay: proximity labelling; BioID: Mad1 fused to BirA in stable HeLa lines, nocodazole arrest, 25 μM biotin; RIPA lysis, streptavidin resin, stringent washes (2% SDS); read by SILAC mass spectrometry and western blot
T1 sequence: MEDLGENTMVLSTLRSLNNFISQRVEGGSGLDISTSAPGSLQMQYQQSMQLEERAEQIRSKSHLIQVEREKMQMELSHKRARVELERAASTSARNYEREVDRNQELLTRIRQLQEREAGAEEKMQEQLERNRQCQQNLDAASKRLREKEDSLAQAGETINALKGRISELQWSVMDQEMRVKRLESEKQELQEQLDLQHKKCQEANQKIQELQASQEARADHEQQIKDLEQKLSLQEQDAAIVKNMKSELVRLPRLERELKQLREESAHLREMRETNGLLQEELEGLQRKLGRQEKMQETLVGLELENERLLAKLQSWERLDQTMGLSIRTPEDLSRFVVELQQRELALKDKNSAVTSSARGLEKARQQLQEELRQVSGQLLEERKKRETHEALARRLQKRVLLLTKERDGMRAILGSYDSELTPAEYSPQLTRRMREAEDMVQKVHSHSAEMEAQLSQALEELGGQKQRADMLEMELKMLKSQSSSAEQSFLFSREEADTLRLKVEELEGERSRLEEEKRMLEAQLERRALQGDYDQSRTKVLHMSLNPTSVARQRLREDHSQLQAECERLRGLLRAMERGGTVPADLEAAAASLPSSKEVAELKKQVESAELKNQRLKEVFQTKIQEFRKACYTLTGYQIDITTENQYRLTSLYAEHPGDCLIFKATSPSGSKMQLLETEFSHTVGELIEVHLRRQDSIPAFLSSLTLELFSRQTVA

Amino acid sequences for entries named in this document (tags omitted).
UniProt Q8NG31: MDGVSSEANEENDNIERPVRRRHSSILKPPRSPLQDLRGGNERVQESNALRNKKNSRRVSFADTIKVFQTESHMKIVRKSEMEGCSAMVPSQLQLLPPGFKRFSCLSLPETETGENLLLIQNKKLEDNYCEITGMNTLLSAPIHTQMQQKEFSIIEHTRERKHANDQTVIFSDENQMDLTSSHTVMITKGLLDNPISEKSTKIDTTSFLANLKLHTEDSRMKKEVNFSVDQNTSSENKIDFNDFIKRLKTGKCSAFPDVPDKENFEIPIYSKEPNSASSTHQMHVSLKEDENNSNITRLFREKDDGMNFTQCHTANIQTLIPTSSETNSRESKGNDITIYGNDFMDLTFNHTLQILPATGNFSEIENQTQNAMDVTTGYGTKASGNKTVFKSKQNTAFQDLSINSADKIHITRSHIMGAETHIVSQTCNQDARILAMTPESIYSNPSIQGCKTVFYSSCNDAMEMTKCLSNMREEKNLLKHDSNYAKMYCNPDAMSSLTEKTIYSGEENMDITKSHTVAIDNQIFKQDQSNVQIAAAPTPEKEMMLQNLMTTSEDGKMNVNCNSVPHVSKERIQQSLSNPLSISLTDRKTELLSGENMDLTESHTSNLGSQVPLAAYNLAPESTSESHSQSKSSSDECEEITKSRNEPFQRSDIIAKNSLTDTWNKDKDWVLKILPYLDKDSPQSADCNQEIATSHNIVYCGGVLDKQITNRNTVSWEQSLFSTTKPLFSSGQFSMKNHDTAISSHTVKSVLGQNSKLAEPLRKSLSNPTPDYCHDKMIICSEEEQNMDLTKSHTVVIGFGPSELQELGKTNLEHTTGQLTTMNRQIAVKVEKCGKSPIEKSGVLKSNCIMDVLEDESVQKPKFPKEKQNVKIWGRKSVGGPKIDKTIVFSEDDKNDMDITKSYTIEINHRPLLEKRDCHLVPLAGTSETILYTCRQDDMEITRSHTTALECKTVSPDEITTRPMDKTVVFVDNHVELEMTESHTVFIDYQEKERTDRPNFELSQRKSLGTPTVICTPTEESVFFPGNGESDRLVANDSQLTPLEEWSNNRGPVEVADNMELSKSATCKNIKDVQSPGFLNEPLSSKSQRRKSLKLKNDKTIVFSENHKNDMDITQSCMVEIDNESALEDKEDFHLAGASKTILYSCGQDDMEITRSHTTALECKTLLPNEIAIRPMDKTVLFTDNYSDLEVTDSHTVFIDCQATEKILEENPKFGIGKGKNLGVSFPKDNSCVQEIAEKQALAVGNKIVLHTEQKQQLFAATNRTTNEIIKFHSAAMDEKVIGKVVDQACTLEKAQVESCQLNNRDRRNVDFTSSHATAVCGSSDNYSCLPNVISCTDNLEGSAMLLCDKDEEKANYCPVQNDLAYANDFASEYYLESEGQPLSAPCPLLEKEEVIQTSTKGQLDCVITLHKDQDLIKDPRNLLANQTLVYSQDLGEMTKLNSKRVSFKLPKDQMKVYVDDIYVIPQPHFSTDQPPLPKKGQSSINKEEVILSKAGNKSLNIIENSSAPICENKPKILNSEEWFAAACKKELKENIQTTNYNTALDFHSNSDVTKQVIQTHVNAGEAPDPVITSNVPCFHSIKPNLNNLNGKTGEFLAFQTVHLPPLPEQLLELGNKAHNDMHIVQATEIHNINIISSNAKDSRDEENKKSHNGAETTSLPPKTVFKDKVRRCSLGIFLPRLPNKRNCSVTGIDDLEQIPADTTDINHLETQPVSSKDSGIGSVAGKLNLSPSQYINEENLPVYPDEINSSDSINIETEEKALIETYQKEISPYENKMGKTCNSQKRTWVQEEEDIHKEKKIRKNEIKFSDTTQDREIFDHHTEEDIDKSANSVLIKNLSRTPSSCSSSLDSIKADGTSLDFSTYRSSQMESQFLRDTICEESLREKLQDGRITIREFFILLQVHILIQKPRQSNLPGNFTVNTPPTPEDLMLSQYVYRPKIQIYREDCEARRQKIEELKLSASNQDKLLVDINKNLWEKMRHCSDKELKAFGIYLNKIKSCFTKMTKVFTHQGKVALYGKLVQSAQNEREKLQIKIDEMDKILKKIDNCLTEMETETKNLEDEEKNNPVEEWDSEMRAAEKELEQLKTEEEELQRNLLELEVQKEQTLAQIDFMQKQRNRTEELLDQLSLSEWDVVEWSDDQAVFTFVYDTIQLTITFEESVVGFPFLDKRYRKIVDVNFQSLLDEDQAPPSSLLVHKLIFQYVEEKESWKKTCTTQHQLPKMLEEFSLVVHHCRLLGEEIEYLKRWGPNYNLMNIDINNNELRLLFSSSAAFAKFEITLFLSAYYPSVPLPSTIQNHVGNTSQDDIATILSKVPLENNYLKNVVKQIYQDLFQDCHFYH

[1] = target: T2, Mad1(EFR/AAA)-BirA (human) (UniProt Q9Y6D9); assay: as above
T2 sequence: T1 sequence with E710A, F712A, R714A

binding (Mad1-BirA (human)): binds | binding [1]: binds
Substance: KNL1 (from UniProt Q8NG31 1-2342)

— PMC5472792, “Bub1 positions Mad1 close to KNL1 MELT repeats to promote checkpoint signalling” (Nature Communications, 2017)
